PubChem BioAssay AID743454 | Peter MacCallum Cancer Centre – 2014
This is an unselected part of about 18,000 deposited reagents. Over the whole deposit, 450 (2.5%) are marked active. 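Single biological run; no consistent viability z cut-off exists, so the class columns, not z-scores, define the calls.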 No sequences are given here.

- Assay: 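Search for knock-downs that restore vorinostat killing in resistant colon cancer cells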 (primary screen)
- System: human HCT116-VR colon cancer cells, selected for vorinostat resistance
- Reagent: siRNA pool against human genes, 40 nM siRNA pool
- Time to read-out: vorinostat for 24 h, read-out about 72 h after transfection
- Conditions: vorinostat at 2.5 µM final
- Measurement: 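Cell viability by CellTiter-Fluor and caspase 3/7 activity by luminescence, each scaled to mock wells per plate, duplicates averaged, then robust z-scored over all plates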
- Direction: viability robust z-score: higher = more viable cells than screen typical; caspase robust z-score: higher = more caspase 3/7 activity than screen typical
- Call rule: 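Hits are knock-downs in viability class RV1/RV2 or caspase class CA1/CA2, excluding ones that killed cells in the no-drug cell-count arm; hits then retested with single siRNAs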

The opening 2 entries, to show the layout:
| gene knocked down | viability hit class | caspase hit class | viability robust z-score | caspase robust z-score | Outcome |
| --- | --- | --- | --- | --- | --- |
| RUSF1 (RUS family member 1) | no change | no change | 0.85 | -0.96 | inactive |
| RHBDF2 (rhomboid 5 homolog 2) | no change | no change | -1.3 | -0.97 | inactive |

The listing, from the first entry:
| gene knocked down | viability hit class | caspase hit class | viability robust z-score | caspase robust z-score | Outcome |
| --- | --- | --- | --- | --- | --- |
| RUSF1 (RUS family member 1) | no change | no change | 0.85 | -0.96 | inactive |
| RHBDF2 (rhomboid 5 homolog 2) | no change | no change | -1.3 | -0.97 | inactive |
| FAM3B (FAM3 metabolism regulating signaling molecule B) | no change | no change | 0.32 | -0.16 | inactive |
| NIF3L1 (NGG1 interacting factor 3 like 1) | no change | no change | 1.72 | -0.28 | inactive |
| IRX6 (iroquois homeobox 6) | no change | no change | -1.43 | 1.54 | inactive |
| NTSR1 (neurotensin receptor 1) | no change | no change | -1.2 | 3.08 | inactive |
| DUSP5 (dual specificity phosphatase 5) | no change | no change | -0.54 | -0.68 | inactive |
| SAMD8 (sterile alpha motif domain containing 8) | RV2 (reduced viability) | no change | -3.26 | 2.22 | active |
| SKA1 (spindle and kinetochore associated complex subunit 1) | no change | no change | -0.22 | -0.02 | inactive |
| PLD6 (phospholipase D family member 6) | no change | no change | -1.57 | 1.04 | inactive |
| FRK (fyn related Src family tyrosine kinase) | no change | no change | -1.16 | 0.28 | inactive |
| ACTN2 (actinin alpha 2) | no change | no change | 0.58 | -0.62 | inactive |
| WDR5B (WD repeat domain 5B) | no change | no change | -0.36 | 0.22 | inactive |
| EEFSEC (eukaryotic elongation factor, selenocysteine-tRNA specific) | no change | no change | 1.08 | 1.92 | inactive |
| OR10H2 (olfactory receptor family 10 subfamily H member 2) | no change | no change | -0.3 | -0.1 | inactive |
| ANAPC4 (anaphase promoting complex subunit 4) | no change | no change | 0.12 | 2.19 | inactive |
| PFKFB2 (6-phosphofructo-2-kinase/fructose-2,6-biphosphatase 2) | no change | no change | 0.09 | 1.57 | inactive |
| XRCC4 (X-ray repair cross complementing 4) | no change | no change | 1.11 | -0.32 | inactive |
| P4HA2 (prolyl 4-hydroxylase subunit alpha 2) | no change | no change | -0.52 | 2.62 | inactive |
| C9orf43 (chromosome 9 open reading frame 43) | no change | no change | 0.3 | -0.39 | inactive |
| TOR3A (torsin family 3 member A) | no change | no change | 0.07 | 0.37 | inactive |
| MKS1 (MKS transition zone complex subunit 1) | no change | no change | -1.49 | 0.12 | inactive |
| NTMT1 (N-terminal Xaa-Pro-Lys N-methyltransferase 1) | no change | no change | -0.84 | 0.65 | inactive |
| ATPAF2 (ATP synthase mitochondrial F1 complex assembly factor 2) | no change | no change | -2.21 | -1.08 | inactive |
| PRMT6 (protein arginine methyltransferase 6) | no change | no change | 0.74 | 1.26 | inactive |
| PRR14L (proline rich 14 like) | no change | no change | 0.97 | -0.94 | inactive |
| CNP (2',3'-cyclic nucleotide 3' phosphodiesterase) | no change | no change | -0.01 | -0.21 | inactive |
| MYL10 (myosin light chain 10) | no change | no change | -1.64 | 0.88 | inactive |
| PLGLB1 (plasminogen like B1) | no change | no change | 0.32 | 0.07 | inactive |
| SMC5 (structural maintenance of chromosomes 5) | no change | no change | -0.59 | 1.96 | inactive |
| HLA-DRB5 (major histocompatibility complex, class II, DR beta 5) | no change | no change | 0.22 | 0.32 | inactive |
| NAP1L2 (nucleosome assembly protein 1 like 2) | no change | no change | 0.14 | -0.36 | inactive |
| ANP32A (acidic nuclear phosphoprotein 32 family member A) | no change | no change | -1 | 2.58 | inactive |
| PARM1 (prostate androgen-regulated mucin-like protein 1) | no change | no change | 0.82 | 1.86 | inactive |
| KLC3 (kinesin light chain 3) | no change | no change | 0.4 | 2.77 | inactive |
| OR2A1 (olfactory receptor family 2 subfamily A member 1) | no change | no change | 0.78 | 1.27 | inactive |
| USP3 (ubiquitin specific peptidase 3) | no change | no change | 0.19 | -0.14 | inactive |
| DCN (decorin) | no change | no change | 0.28 | -0.04 | inactive |
| ACTRT3 (actin related protein T3) | no change | no change | -0.32 | -0.26 | inactive |
